Measured values from the supplement of paper PMC7830784.
Structures can show the parent of a compound that is named as a salt. The list shows a part of the results. Repeats in this data set agree poorly, so a single value says little.

system: Brugia pahangi adult female; experiment: motility inhibition on day 3 relative to DMSO vehicle; higher = more active; settings: 10 µM; 3 days

Which “motility inhibition on day 3” value does the source give for `C[N+](C)(C)CCOP(=O)(O)OP(=O)([O-])OC[C@H]1O[C@@H](n2ccc(N)nc2=O)[C@H](O)[C@@H]1O` [citicoline] here?
The value was 9.14%.

For `Nc1ccc(S(=O)(=O)NC(=O)c2ccccc2)cc1` [sulfabenzamide], which “motility inhibition on day 3” value is on record?
Its value is under 0%.

Which “motility inhibition on day 3” value does the source give for `CC(C)c1nc(N(C)S(C)(=O)=O)nc(-c2ccc(F)cc2)c1/C=C/[C@@H](O)C[C@@H](O)CC(=O)O` [rosuvastatin] here?
The value was 15.5%.

How did the “motility inhibition on day 3” value turn out when `C=C(CC)C(=O)c1ccc(OCC(=O)O)c(Cl)c1Cl` [ethacrynic acid] was run?
Its value is 82.9%.

For `CS(=O)(=O)c1ccc([C@@H](O)[C@@H](CF)NC(=O)C(Cl)Cl)cc1` [florfenicol], which “motility inhibition on day 3” value is on record?
Its value is 4.22%.

`CCN(CC)CCCC(C)Nc1ccnc2cc(Cl)ccc12` (centres undefined) [Chloroquine phosphate] was tested. Which “motility inhibition on day 3” value did it give?
The value was 8.34%.

`FCOC(C(F)(F)F)C(F)(F)F` [sevoflurane] was tested. Which “motility inhibition on day 3” value did it give?
Its value is 37.2%.

With `Cc1cccc(C)c1NC(=O)c1ccccc1C(=O)O` [ftaxilide] as the compound, how does the “motility inhibition on day 3” value read?
Its value is 18.2%.

For `CCCCN1C[C@H](O)[C@@H](O)[C@H](O)[C@H]1CO` [Miglustat], which “motility inhibition on day 3” value is on record?
The value was under 0%.

For `C[C@@H](O)[C@H]1C(=O)N2C(C(=O)O)=C(SCCNC=N)C[C@H]12` [imipenem], which “motility inhibition on day 3” value is on record?
The value was 5.22%.

For `c1ccc2c(c1)CCCC2C1=NCCN1` (centres undefined) [tetrahydrozoline hydrochloride], which “motility inhibition on day 3” value is on record?
Its value is under 0%.

For `CC(C)(C)C(=O)OCOC(=O)[C@@H]1N2C(=O)[C@@H](/N=C/N3CCCCCC3)[C@H]2SC1(C)C` [Pivmecillinam], which “motility inhibition on day 3” value is on record?
Its value is 16.3%.

How did the “motility inhibition on day 3” value turn out when `Cc1ncc([N+](=O)[O-])n1C` [dimetridazole] was run?
The value was under 0%.

`N[C@@H](CC(=O)O)C(=O)O` [L-Aspartic acid] was tested. Which “motility inhibition on day 3” value did it give?
Its value is 11.4%.

`C1N2CN3CN1CN(C2)C3` [methenamine] was tested. Which “motility inhibition on day 3” value did it give?
Its value is 3.08%.

How did the “motility inhibition on day 3” value turn out when `C[Se]CC[C@H](N)C(=O)O` [selenomethionine] was run?
Its value is 38.2%.

Which “motility inhibition on day 3” value does the source give for `CCCCCN(C)CCC(O)(P(=O)(O)O)P(=O)(O)O` [ibandronate sodium] here?
Its value is 2.74%.

With `N[C@@H](CS)C(=O)O` [L-Cysteine] as the compound, how does the “motility inhibition on day 3” value read?
Its value is 1.04%.

How did the “motility inhibition on day 3” value turn out when `N[C@@H](CS)C(=O)O` [L-Cysteine hydrochloride] was run?
The value was under 0%.

Which “motility inhibition on day 3” value does the source give for `CCOC(=O)N1CCC(=C2c3ccc(Cl)cc3CCc3cccnc32)CC1` [loratadine] here?
Its value is under 0%.

For `Nc1nc(F)nc2c1ncn2[C@@H]1O[C@H](COP(=O)(O)O)[C@@H](O)[C@@H]1O` [fludarabine phosphate], which “motility inhibition on day 3” value is on record?
The value was 17.3%.

`COc1ccc(C(=O)CCC(=O)O)c2ccccc12` [Menbutone] was tested. Which “motility inhibition on day 3” value did it give?
Its value is under 0%.

Which “motility inhibition on day 3” value does the source give for `NC(=O)c1ccccc1O` [salicylamide] here?
The value was 22.6%.

Which “motility inhibition on day 3” value does the source give for `CC(C)C[C@H](NC(=O)[C@H](Cc1ccccc1)NC(=O)c1cnccn1)B(O)O` [Bortezomib] here?
Its value is 2.33%.

Which “motility inhibition on day 3” value does the source give for `COc1ccc(CC(C)NCC(O)c2ccc(O)c(NC=O)c2)cc1` (centres undefined) [Formoterol fumarate dihydrate] here?
The value was 5.22%.

With `COc1ccc(CC(C)NCC(O)c2ccc(O)c(NC=O)c2)cc1` (centres undefined) [Formoterol] as the compound, how does the “motility inhibition on day 3” value read?
Its value is 89.9%.

How did the “motility inhibition on day 3” value turn out when `Oc1c(Br)cc(Br)c2cccnc12` [broxyquinoline] was run?
Its value is 87.7%.

Which “motility inhibition on day 3” value does the source give for `CN(C)[C@@H]1C(O)=C(C(N)=O)C(=O)[C@@]2(O)C(O)=C3C(=O)c4c(O)cccc4[C@@](C)(O)[C@H]3C[C@@H]12` [tetracycline hydrochloride] here?
Its value is under 0%.

With `C[C@H](N[C@@H](CCc1ccccc1)C(=O)O)C(=O)N1CCC[C@H]1C(=O)O` [enalaprilat] as the compound, how does the “motility inhibition on day 3” value read?
The value was 2.78%.

With `NC(=O)N[C@@H](CCC(=O)O)C(=O)O` [carglumic acid] as the compound, how does the “motility inhibition on day 3” value read?
Its value is 19.3%.

Which “motility inhibition on day 3” value does the source give for `CC(=O)[C@@]12O[C@](C)(c3ccccc3)O[C@@H]1C[C@H]1[C@@H]3CCC4=CC(=O)CC[C@]4(C)[C@H]3CC[C@@]12C` [algestone acetophenide] here?
The value was under 0%.

How did the “motility inhibition on day 3” value turn out when `COC(=O)[C@H](c1ccccc1Cl)N1CCc2sccc2C1` [clopidogrel sulfate] was run?
The value was 1.16%.

Which “motility inhibition on day 3” value does the source give for `C[C@]12CCC(=O)C=C1CC[C@@H]1[C@@H]2C(=O)C[C@@]2(C)[C@H]1CC[C@]2(O)C(=O)CO` [cortisone] here?
The value was under 0%.

With `COCCCC/C(=N\OCCN)c1ccc(C(F)(F)F)cc1` [fluvoxamine maleate] as the compound, how does the “motility inhibition on day 3” value read?
The value was 1.35%.

Which “motility inhibition on day 3” value does the source give for `Cc1c(Cl)cccc1Nc1ccccc1C(=O)O` [tolfenamic acid] here?
Its value is 18.8%.

Which “motility inhibition on day 3” value does the source give for `CCCSc1ccc2[nH]c(NC(=O)OC)nc2c1` [albendazole] here?
Its value is 13.5%.

`CO[C@H]1/C=C/O[C@@]2(C)Oc3c(C)c(O)c4c(O)c(c(/C=N/N5CCN(C)CC5)c(O)c4c3C2=O)NC(=O)/C(C)=C\C=C\[C@H](C)[C@H](O)[C@@H](C)[C@@H](O)[C@@H](C)[C@H](OC(C)=O)[C@@H]1C` [Rifampicin] was tested. Which “motility inhibition on day 3” value did it give?
The value was 17.7%.

For `CO[C@H]1/C=C/O[C@@]2(C)Oc3c(C)c(O)c4c(O)c(c(/C=N/N5CCN(C)CC5)c(O)c4c3C2=O)NC(=O)/C(C)=C\C=C\[C@H](C)[C@H](O)[C@@H](C)[C@@H](O)[C@@H](C)[C@H](OC(C)=O)[C@@H]1C` [rifampin], which “motility inhibition on day 3” value is on record?
Its value is under 0%.

How did the “motility inhibition on day 3” value turn out when `O=C(O)c1ccccc1-c1c2cc(I)c(=O)c(I)c-2oc2c(I)c(O)c(I)cc12` [erythrosine sodium] was run?
The value was 27%.

Which “motility inhibition on day 3” value does the source give for `CCc1ccc(CCOc2ccc(CC3SC(=O)NC3=O)cc2)nc1` (centres undefined) [pioglitazone hydrochloride] here?
The value was 3.11%.

For `O=C1c2c(O)cc(CO)cc2C(OC2OC(CO)C(O)C(O)C2O)c2cccc(OC3OC(CO)C(O)C(O)C3O)c21` (centres undefined) [casanthranol [cascaroside a shown]], which “motility inhibition on day 3” value is on record?
Its value is under 0%.

Which “motility inhibition on day 3” value does the source give for `Cc1ccc(N(CC2=NCCN2)c2cccc(O)c2)cc1` [Phentolamine mesylate] here?
Its value is 42.9%.

`O=C1c2ccccc2C(=O)C1c1ccccc1` [phenindione] was tested. Which “motility inhibition on day 3” value did it give?
The value was 12.6%.

With `Clc1ccc2c(c1)C(N1CCNCC1)=Nc1ccccc1O2` [Amoxapine] as the compound, how does the “motility inhibition on day 3” value read?
Its value is under 0%.

For `O=C(O)CCc1nc(-c2ccccc2)c(-c2ccccc2)o1` [oxaprozin], which “motility inhibition on day 3” value is on record?
The value was under 0%.

For `c1ccc(CC2=NCCN2)cc1` [tolazoline hydrochloride], which “motility inhibition on day 3” value is on record?
Its value is under 0%.

For `OCCN1CCN(CCCN2c3ccccc3Sc3ccc(C(F)(F)F)cc32)CC1` [Fluphenazine dihydrochloride], which “motility inhibition on day 3” value is on record?
The value was 14.6%.

With `CC(C)(Oc1ccc(CCNC(=O)c2ccc(Cl)cc2)cc1)C(=O)O` [bezafibrate] as the compound, how does the “motility inhibition on day 3” value read?
Its value is 33.8%.

Which “motility inhibition on day 3” value does the source give for `CC1=C(/C=C/C(C)=C/C=C/C(C)=C/C=C/C=C(C)/C=C/C=C(C)/C=C/C2=C(C)CCCC2(C)C)C(C)(C)CCC1` [beta-carotene] here?
The value was under 0%.

`CC(C(=O)O)c1ccc(CC2CCCC2=O)cc1` (centres undefined) [loxoprofen] was tested. Which “motility inhibition on day 3” value did it give?
Its value is under 0%.

How did the “motility inhibition on day 3” value turn out when `CC[C@H]1OC(=O)[C@H](C)[C@@H](O[C@H]2C[C@@](C)(OC)[C@@H](O)[C@H](C)O2)[C@H](C)[C@@H](O[C@@H]2O[C@H](C)C[C@H](N(C)C)[C@H]2O)[C@](C)(O)C[C@@H](C)C(=O)[C@H](C)[C@@H](O)[C@]1(C)O` [erythromycin] was run?
Its value is 10.3%.

How did the “motility inhibition on day 3” value turn out when `Cc1cc(NC(=O)C2=C(O)c3ccccc3S(=O)(=O)N2C)no1` [isoxicam] was run?
The value was under 0%.

How did the “motility inhibition on day 3” value turn out when `Cc1cc(C(C)(C)CC(C)(C)C)ccc1OCCOCC[N+](C)(C)Cc1ccccc1` [methylbenzethonium chloride] was run?
The value was 97.4%.

With `CO[C@@]1(NC(=O)C2SC(=C(C(N)=O)C(=O)O)S2)C(=O)N2C(C(=O)O)=C(CSc3nnnn3C)CS[C@@H]21` (some centres undefined) [cefotetan] as the compound, how does the “motility inhibition on day 3” value read?
The value was under 0%.

How did the “motility inhibition on day 3” value turn out when `CN(C)CCCN1c2ccccc2CCc2ccc(Cl)cc21` [Clomipramine hydrochloride] was run?
Its value is 0.394%.

With `Clc1ccccc1CN1CCc2sccc2C1` [ticlopidine hydrochloride] as the compound, how does the “motility inhibition on day 3” value read?
The value was 21.3%.

How did the “motility inhibition on day 3” value turn out when `CCC(=O)O[C@H](CC(=O)O)C[N+](C)(C)C` [levocarnitine propionate hydrochloride] was run?
Its value is 4.19%.

How did the “motility inhibition on day 3” value turn out when `Nc1ccc(O)c(C(=O)O)c1` [mesalamine] was run?
The value was under 0%.

`COc1cc2c(cc1O)CC[C@@H]1[C@@H]2CC[C@]2(C)[C@@H](O)CC[C@@H]12` [2-methoxyestradiol] was tested. Which “motility inhibition on day 3” value did it give?
The value was under 0%.

`COC(=O)C1=C(C)NC(C)=C(C(=O)OC)C1c1ccccc1[N+](=O)[O-]` [Nifedipine] was tested. Which “motility inhibition on day 3” value did it give?
Its value is 9.97%.

Which “motility inhibition on day 3” value does the source give for `C#C[C@]1(O)CC[C@H]2[C@@H]3CCC4=CC(=O)CC[C@@H]4[C@H]3CC[C@@]21C` [norethindrone] here?
Its value is 15.5%.

Which “motility inhibition on day 3” value does the source give for `O=C1CC[C@@H](C(=O)O)N1` [pidolic acid] here?
The value was 35.6%.

How did the “motility inhibition on day 3” value turn out when `CO[C@@]1(NC(=O)C(C(=O)O)c2ccc(O)cc2)C(=O)N2C(C(=O)O)=C(CSc3nnnn3C)CO[C@@H]21` (some centres undefined) [moxalactam disodium] was run?
Its value is 2.98%.

Which “motility inhibition on day 3” value does the source give for `Nc1ccc(S(=O)(=O)Nc2ncccn2)cc1` [sulfadiazine] here?
Its value is under 0%.

`C#C[C@]1(OC(C)=O)CC[C@H]2[C@@H]3CCC4=C[C@@H](OC(C)=O)CC[C@@H]4[C@H]3CC[C@@]21C` [ethynodiol diacetate] was tested. Which “motility inhibition on day 3” value did it give?
Its value is 25.5%.

How did the “motility inhibition on day 3” value turn out when `OC[C@@H](O)[C@@H](O)CO` [erythritol] was run?
The value was 15.6%.

`CC(=O)OC/C=C(C)/C=C/C=C(C)/C=C/C1=C(C)CCCC1(C)C` [retinyl acetate] was tested. Which “motility inhibition on day 3” value did it give?
Its value is under 0%.

For `NS(=O)(=O)c1cc2c(cc1Cl)N=C(CSCc1ccccc1)NS2(=O)=O` [benzthiazide], which “motility inhibition on day 3” value is on record?
Its value is 2.41%.

`CCCCC(=O)OCC(=O)[C@]1(O)Cc2c(O)c3c(c(O)c2[C@@H](O[C@H]2C[C@H](NC(=O)C(F)(F)F)[C@H](O)[C@H](C)O2)C1)C(=O)c1c(OC)cccc1C3=O` [Valrubicin] was tested. Which “motility inhibition on day 3” value did it give?
The value was 10.3%.

Which “motility inhibition on day 3” value does the source give for `O=C1C(CC[S+]([O-])c2ccccc2)C(=O)N(c2ccccc2)N1c1ccccc1` (centres undefined) [sulfinpyrazone] here?
Its value is under 0%.

With `C[C@@H]1CC(=O)NN=C1c1ccc(NN=C(C#N)C#N)cc1` [levosimendan] as the compound, how does the “motility inhibition on day 3” value read?
Its value is 2.52%.

How did the “motility inhibition on day 3” value turn out when `C[C@@H](c1ncncc1F)[C@](O)(Cn1cncn1)c1ccc(F)cc1F` [voriconazole] was run?
The value was 3.04%.

How did the “motility inhibition on day 3” value turn out when `O=C(O)Cc1ccccc1Nc1c(Cl)cccc1Cl` [Diclofenac sodium] was run?
The value was 6.2%.

`C[C@]12C=CC(=O)C=C1CC[C@@H]1[C@@H]2[C@@H](O)C[C@@]2(C)[C@H]1CC[C@]2(O)C(=O)CO` [prednisolone] was tested. Which “motility inhibition on day 3” value did it give?
The value was under 0%.
